These are yes or no findings as the source states them, for the method shown. Some results given as binding are weak or reduced against the parent protein; the word gives no strength. Where a sequence is shown, tags or fusion partners need not be part of it.

Protein sequences, listed by entry. Tags and fused reporters are not part of them. Lines headed by an entry give the natural chain unless they say otherwise; changes in a name come on top. Chains listed by the source or under a name are the forms on record and can include a tag or linker.
human G-CSF (granulocyte colony-stimulating factor) (P09919-2, form named): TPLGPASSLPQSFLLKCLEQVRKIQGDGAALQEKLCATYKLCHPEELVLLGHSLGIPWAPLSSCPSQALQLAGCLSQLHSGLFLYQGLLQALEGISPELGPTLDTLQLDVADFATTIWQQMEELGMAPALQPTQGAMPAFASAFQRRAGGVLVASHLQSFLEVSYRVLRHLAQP

This passage reports binding results from PMC10549227.

The assay addresses T1, Fc-chimera G-CSF receptor (UniProt Q99062).
T1 sequence: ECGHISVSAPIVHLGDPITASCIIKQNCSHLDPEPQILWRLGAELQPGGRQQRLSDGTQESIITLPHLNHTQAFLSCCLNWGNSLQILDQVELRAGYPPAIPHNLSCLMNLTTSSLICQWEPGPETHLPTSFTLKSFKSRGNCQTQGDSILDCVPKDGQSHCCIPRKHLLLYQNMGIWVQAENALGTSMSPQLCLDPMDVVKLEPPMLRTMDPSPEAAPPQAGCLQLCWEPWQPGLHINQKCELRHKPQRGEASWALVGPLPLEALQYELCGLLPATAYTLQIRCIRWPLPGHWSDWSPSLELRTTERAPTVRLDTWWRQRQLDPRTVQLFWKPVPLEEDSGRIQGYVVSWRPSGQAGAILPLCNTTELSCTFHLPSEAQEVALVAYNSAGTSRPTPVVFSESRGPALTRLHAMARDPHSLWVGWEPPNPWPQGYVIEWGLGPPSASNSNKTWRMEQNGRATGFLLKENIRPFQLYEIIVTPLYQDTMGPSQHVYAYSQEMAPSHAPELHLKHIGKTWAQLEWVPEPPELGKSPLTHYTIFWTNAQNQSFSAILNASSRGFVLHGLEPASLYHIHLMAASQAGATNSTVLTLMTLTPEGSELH
Kind of assay: SPR; Biacore T200; Protein A amine-coupled on CM5 chip, Fc-chimera G-CSF receptor captured via Protein A; G-CSF variants injected in single-cycle manner at increasing concentrations, 30 uL/min; running buffer 10 mM HEPES, 0.05% Tween20, 150 mM NaCl, pH 7.4; both purified. In general terms: SPR reads the build-up and loss of mass on a sensor chip optically.

For “human G-CSF (granulocyte colony-stimulating factor) (from UniProt P09919-2 31-204) (ligand)”, the binding result is given as “binds”.
